From publication PMC5996148
Some of the results follow. For some assays here: The exact form of the protein is not confirmed.

Chains of the proteins cited; added tags and fusions are not shown. Lines headed by an entry give the natural chain unless they say otherwise; changes in a name come on top.
UniProt Q8TDD1, whole entry: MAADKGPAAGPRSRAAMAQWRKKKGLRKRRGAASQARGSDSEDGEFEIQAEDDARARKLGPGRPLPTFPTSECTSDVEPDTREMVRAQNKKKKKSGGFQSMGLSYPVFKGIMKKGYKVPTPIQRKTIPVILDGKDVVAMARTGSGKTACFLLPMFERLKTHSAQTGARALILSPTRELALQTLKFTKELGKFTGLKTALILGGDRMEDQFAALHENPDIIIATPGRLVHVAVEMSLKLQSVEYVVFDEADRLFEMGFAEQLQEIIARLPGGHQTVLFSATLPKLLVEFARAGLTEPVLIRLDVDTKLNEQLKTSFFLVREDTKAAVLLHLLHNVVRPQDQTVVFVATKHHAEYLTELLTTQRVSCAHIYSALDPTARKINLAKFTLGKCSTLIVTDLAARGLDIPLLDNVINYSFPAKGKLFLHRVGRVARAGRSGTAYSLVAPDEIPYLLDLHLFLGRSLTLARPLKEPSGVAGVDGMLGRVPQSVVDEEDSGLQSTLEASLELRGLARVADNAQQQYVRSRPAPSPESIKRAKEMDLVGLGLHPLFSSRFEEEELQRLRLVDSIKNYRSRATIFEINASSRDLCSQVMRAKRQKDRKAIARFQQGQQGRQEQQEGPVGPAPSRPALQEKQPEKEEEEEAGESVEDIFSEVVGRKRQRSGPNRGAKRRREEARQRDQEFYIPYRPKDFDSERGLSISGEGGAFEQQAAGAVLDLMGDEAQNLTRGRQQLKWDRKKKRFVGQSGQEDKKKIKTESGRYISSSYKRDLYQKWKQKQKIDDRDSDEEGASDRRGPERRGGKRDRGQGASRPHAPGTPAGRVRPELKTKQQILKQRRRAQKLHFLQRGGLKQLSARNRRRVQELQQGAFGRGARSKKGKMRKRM
UniProt Q8WYQ5: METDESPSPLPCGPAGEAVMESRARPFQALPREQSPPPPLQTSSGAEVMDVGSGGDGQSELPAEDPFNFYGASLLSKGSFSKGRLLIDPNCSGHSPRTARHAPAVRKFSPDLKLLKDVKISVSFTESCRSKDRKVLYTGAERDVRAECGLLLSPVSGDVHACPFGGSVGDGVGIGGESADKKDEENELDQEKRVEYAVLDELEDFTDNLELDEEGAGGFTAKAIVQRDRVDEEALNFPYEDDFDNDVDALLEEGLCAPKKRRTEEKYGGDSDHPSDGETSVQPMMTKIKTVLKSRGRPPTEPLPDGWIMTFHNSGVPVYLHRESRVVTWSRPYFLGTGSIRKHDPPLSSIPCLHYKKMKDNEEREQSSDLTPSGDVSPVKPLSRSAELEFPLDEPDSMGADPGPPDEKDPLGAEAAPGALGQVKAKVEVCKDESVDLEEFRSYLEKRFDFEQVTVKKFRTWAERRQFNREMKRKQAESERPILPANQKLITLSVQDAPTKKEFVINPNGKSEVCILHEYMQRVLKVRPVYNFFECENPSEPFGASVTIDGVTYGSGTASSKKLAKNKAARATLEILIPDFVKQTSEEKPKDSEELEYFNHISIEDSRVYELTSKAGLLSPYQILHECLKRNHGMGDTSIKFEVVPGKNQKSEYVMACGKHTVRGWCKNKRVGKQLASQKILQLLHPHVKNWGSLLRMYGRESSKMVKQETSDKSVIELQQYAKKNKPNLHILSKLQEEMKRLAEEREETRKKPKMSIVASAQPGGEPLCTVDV
UniProt Q9UNQ2: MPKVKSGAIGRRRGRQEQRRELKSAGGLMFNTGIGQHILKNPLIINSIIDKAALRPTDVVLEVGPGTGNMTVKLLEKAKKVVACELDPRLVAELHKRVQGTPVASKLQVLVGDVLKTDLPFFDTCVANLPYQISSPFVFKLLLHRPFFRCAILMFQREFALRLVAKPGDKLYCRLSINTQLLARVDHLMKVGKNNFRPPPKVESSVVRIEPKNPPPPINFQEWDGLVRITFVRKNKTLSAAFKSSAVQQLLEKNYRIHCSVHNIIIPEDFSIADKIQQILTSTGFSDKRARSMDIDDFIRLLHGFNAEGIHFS

Columns and labels:
Assay in all cases: protein microarray (ProtoArray v5.0), streptavidin-Alexa Fluor 647
Settings in all cases: 3'-biotin; 20 mM Tris (pH 7.5), 5 mM MgCl2, 100 mM KCl, 0.1% Tween-20, A/T-rich and random oligonucleotide blockers; temperature not stated; high values mean tight binding
[1] = test system: DCN1-like protein 1 (human)
DCPS (human) = test system: DCPS (human)
DCTN2 (human) = test system: DCTN2 (human)
DCTN3 (human) = test system: DCTN3 (human)
DCUN1D3 (human) = test system: DCUN1D3 (human)
DDX21 = molecular target: T1, DDX21 (UniProt Q9NR30)
T1 sequence: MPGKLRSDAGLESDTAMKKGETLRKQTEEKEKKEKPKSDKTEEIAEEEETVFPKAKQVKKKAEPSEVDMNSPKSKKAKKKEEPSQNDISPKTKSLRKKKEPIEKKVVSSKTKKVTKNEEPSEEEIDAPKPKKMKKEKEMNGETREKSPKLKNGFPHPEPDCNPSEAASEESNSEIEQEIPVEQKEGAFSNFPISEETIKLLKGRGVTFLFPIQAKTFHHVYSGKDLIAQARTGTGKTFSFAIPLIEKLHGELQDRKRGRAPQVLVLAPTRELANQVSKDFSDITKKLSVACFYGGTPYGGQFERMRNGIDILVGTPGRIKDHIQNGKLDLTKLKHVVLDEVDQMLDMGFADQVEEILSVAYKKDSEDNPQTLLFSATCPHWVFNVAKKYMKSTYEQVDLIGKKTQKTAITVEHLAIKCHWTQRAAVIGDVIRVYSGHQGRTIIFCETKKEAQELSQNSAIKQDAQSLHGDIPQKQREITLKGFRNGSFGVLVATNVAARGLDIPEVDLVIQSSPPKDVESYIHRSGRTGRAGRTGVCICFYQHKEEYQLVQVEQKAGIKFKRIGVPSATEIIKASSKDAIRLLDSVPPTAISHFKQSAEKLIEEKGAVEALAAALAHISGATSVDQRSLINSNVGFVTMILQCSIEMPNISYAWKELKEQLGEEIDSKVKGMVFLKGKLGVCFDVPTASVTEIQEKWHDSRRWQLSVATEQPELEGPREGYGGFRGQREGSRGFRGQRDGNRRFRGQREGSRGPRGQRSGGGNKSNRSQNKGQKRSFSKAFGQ

DDX54 = DDX54 (UniProt Q8TDD1)
DDX55 = molecular target: T2, DDX55 (UniProt Q8NHQ9)
T2 sequence: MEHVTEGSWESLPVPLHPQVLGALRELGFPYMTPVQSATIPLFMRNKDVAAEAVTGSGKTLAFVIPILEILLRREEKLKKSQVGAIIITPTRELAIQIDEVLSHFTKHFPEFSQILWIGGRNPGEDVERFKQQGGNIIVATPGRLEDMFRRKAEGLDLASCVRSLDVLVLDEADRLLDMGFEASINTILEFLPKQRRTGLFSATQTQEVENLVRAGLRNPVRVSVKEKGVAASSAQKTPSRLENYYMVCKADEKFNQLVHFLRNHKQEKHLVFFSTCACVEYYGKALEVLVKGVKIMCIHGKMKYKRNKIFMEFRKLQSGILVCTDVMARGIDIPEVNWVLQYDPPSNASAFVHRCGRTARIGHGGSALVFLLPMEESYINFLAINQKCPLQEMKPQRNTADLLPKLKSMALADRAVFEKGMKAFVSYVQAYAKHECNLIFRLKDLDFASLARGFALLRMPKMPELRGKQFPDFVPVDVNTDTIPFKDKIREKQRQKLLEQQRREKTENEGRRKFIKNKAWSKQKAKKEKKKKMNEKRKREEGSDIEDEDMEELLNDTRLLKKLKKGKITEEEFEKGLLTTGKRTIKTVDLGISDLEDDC

DEFA6 (human) = test system: DEFA6 (human)
DEFB119 (human) = test system: DEFB119 (human)
DFFA (human) = test system: DFFA (human)
DFNA5 (human) = test system: DFNA5 (human)
DGCR6 (human) = test system: DGCR6 (human)
DGCR8 = DGCR8 (UniProt Q8WYQ5)
DIABLO (human) = test system: DIABLO (human)
DIMT1L = DIMT1L (UniProt Q9UNQ2)
DIP (human) = test system: DIP (human)
DKFZP564O0823 (human) = test system: DKFZP564O0823 (human)
DKFZp434B1231 (human) = test system: DKFZp434B1231 (human)
DLK2 (human) = test system: DLK2 (human)

## GGGGACAGGGGTATGGGGAGGGG [G4-3 biotinylated (CtG)]
[1]
  binding signal: -0.325 z-score
DCPS (human)
  binding signal: -0.315 z-score
DCTN2 (human)
  binding signal: -0.331 z-score
DCTN3 (human)
  binding signal: -0.326 z-score
DCUN1D3 (human)
  binding signal: -0.342 z-score
DDX21
  binding signal: 4.37 z-score
DDX54
  binding signal: 4.65 z-score
DDX55
  binding signal: 4.24 z-score
DEFA6 (human)
  binding signal: -0.328 z-score
DEFB119 (human)
  binding signal: -0.313 z-score
DFFA (human)
  binding signal: -0.342 z-score
DFNA5 (human)
  binding signal: -0.334 z-score
DGCR6 (human)
  binding signal: -0.338 z-score
DGCR8
  binding signal: 3.39 z-score
DIABLO (human)
  binding signal: -0.339 z-score
DIMT1L
  binding signal: 8.31 z-score
DIP (human)
  binding signal: -0.291 z-score
DKFZP564O0823 (human)
  binding signal: -0.324 z-score
DKFZp434B1231 (human)
  binding signal: -0.325 z-score
DLK2 (human)
  binding signal: -0.308 z-score
